Patent publication EP4475229A1, “QUINONE-TYPE MOLECULES FOR ZINC-ION AQUEOUS BATTERIES” (Centre National de la Recherche Scientifique, priority 2023, dated 2024)
Where two headings read alike, the source gives them in different places. Some compounds share one wording; it may come from a single statement.

What was measured:
[1] = vs. the maximum observed capacity, cited from earlier work
[2] = Cycling tests of quinone electrodes (cyclic voltammetry, galvanostatic cycling), capacity and capacity loss
[3] = galvanostatic cycling 0.1 A/g, R close to 1.2 mg/ml, zinc acetate based aqueous electrolytes (30K3Li3Zn)

O=c1c(=O)c2cccc3c2-c2c1cccc2c(=O)c3=O [PTO]
Observed ΔQloss upon 100h cycling ([1]; 2M ZnSO4, pH 4-5, ref [4], 16.7 mg/ml): ~43%
Observed ΔQloss upon 100h cycling ([1]; 2.5M Li2SO4, pH 7, ref [5]): ~85%
Observed ΔQloss upon 100h cycling ([1]; 4.4M H2SO4, pH 0, ref [5]): ~0%

NC1=C(N)C(=O)C(N)=C(N)C1=O [TABQ]
Observed ΔQloss upon 100h cycling ([1]; 1M ZnSO4, pH 4-5, ref [1]): ~30%

CC(C)(C)C1=CC(=O)C(C(C)(C)C)=CC1=O [compound 1]
Observed ΔQloss upon 100h cycling ([2]; vs. the maximum observed capacity, 1.25 M Zn(CH3COO)2, pH 4-5, 1.2 mg/ml active material/electrolyte): ~0%

CC(C)(C)c1cc(O)c(C(C)(C)C)cc1O [compound 2]
capacity reached over a few tens of cycles ([2]; galvanostatic cycling 0.1 A/g, R 1.2 mg/ml, 1.25 M ZnOAc): 130 mAh/g
capacity reached over a few tens of cycles ([2]; galvanostatic cycling 0.1 A/g, R 1.2 mg/ml, 30K3Li3Zn): 180 mAh/g
capacity at start of cycling ([2]; galvanostatic cycling 0.1 A/g, R 1.2 mg/ml, 30K3Li3Zn and 1.25 M ZnOAc): roughly 100 mAh/g

CC(C)(C)c1cc(O)ccc1O [compound 8]
capacity retention on cycling [2, 3]: cannot prevent the loss of the initial capacity

CC(C)C1=C(Cl)C(=O)C(C(C)C)=C(Cl)C1=O [compound 9, 2,5-Dichloro-3,6-bis(1-methylethyl)-2,5-cyclohexandiene-1,4-dione]
capacity retention on cycling ([2]; galvanostatic cycling 0.1 A/g, R ~ 1.2 mg/ml, 30K1Zn, 30K3Li3Zn and 30K5Zn electrolytes): cannot prevent the loss of initial capacity on cycling

O=C1C=CC(=O)C(c2ccccc2)=C1 [compound 13, Phenyl-1,4-benzoquinone]
capacity retention on cycling [2, 3]: cannot prevent the loss of the initial capacity

Cc1ccc(C2=CC(=O)C=CC2=O)cc1 [compound 14, 2-(4-Tolyl)-1,4-benzoquinone]
capacity retention on cycling [2, 3]: cannot prevent the loss of the initial capacity
